Here are results for 62 compounds from publication PMC12670160, “A drug-repurposing screen of FDA- and EMA-approved drugs identifies two NF-κB inhibitors active against eumycetoma” (Journal of Antimicrobial Chemotherapy, 2025).

Counter-ions that a name gives are not always drawn. Out of some 5,300 compounds screened, about 130 (2.5%) showed an effect of 50% or more. Some of the results follow. Peptide text beside a SMILES is read from it. * marks the point of attachment. PhAc = O=C(Cc1ccccc1)*

This test deals with M. mycetomatis strain mm55. The note with it: primary screen, metabolic activity vs growth control; 96 h, 2 µM; inhibitor.
In the case of `CC(CN(C)C)CN1c2ccccc2CCc2ccccc21` (centres unmarked) [ONC0002854, trimipramine maleate], the “% viability” value was found to be 124.6%. With `CCCC(O)C(CC)CO` (centres unmarked) [ONC0003288, 2ethyl13hexanediol], the “% viability” value is listed as 96.38%. As for `O=C(/C=C/c1ccc(O)c2c1[C@@H](C(=O)O[C@H](Cc1ccc(O)c(O)c1)C(=O)O)[C@H](c1ccc(O)c(O)c1)O2)O[C@H](Cc1ccc(O)c(O)c1)C(=O)O` [ONC0000334, salvianolic acid b], the figure is 78.81%; as for `OC(CCN1CCCC1)(c1ccccc1)C1CCCCC1` (centres unmarked) [ONC0000469, procyclidine hydrochloride], 74.91%. Consider `C[C@]12CCC(=O)C=C1C=C[C@@H]1[C@@H]2CC[C@@]2(C)[C@H]1CC[C@@]2(O)CCC(=O)O` [ONC0003183, canrenoic acid potassium salt], for which the “% viability” value amounted to 87.76%. The figure for `CO/N=C1/C[C@@H](C(=O)NC[C@@H](O)c2ccccc2)N(C(=O)c2ccc(-c3ccccc3C)cc2)C1` [ONC0001890, otrantagonist1] is 132.6%; for `Cn1c(=O)c2c(ncn2CCOC(=O)C(C)(C)Oc2ccc(Cl)cc2)n(C)c1=O` [ONC0003706, etofyllineclofibrate] it is 113.3%; for `CC(C)NCC(O)COc1cccc2[nH]ccc12` (centres unmarked) [ONC0000503, pindolol] it is 66.48%.

For `CC(C)n1nccc1-c1ncccc1COc1cccc(O)c1C=O` [ONC0001792, voxelotor], the “% viability” value worked out at 97.11%. Take `CC[C@H]1CN2CCc3cc(OC)c(OC)cc3C2C[C@@H]1CC1NCCc2cc(OC)c(OC)cc21` (some centres unmarked) [ONC0000760, emetine dihydrochloride]: the “% viability” value is reported as 79.69%. For `CC1(C)O[C@@H]2C[C@H]3[C@@H]4C[C@H](F)C5=CC(=O)C=C[C@]5(C)[C@H]4[C@@H](O)C[C@]3(C)[C@]2(C(=O)CO)O1` [ONC0000633, flunisolide], the “% viability” value is on record as 112.6%. As for `CN(Cc1cc(Br)cc(Br)c1N)C1CCCCC1` [ONC0002822, bromhexine hydrochloride], the figure is 79.46%; as for `CN1C(=O)N(C)C2C1N(C)C(=O)N2C` (centres unmarked) [ONC0002881, mebicar], 100.3%. With `Cn1cnc(=N)c2nc[nH]c21` [ONC0004721, 3methyladenine 3ma], the “% viability” value was 115.8%.

For `CCCNCCc1ccc(NS(=O)(=O)c2ccc(OC(F)(F)F)cc2)cc1` [ONC0002556, pnu177864], the “% viability” value came to 83.59%.

Turning to `CCOC(=O)c1c2c3c(cccc3[nH]c1=O)C(=O)c1ccccc1-2` [ONC0001061, nqdi1], the “% viability” value is on record as 43.7%. In the case of `C[C@H](CS)C(=O)N1CCC[C@H]1C(=O)O` [ONC0000699, captopril], the “% viability” value is 85.99%. As for `CC(C)=CCC/C(C)=C/CC/C(C)=C/CC[C@]1(C)CCc2cc(O)cc(C)c2O1` [ONC0003398, deltatocotrienol], the figure is 70.55%. Regarding `Cc1c(-c2ccc(-c3ccccc3F)cc2)nc2ccc(F)cc2c1C(=O)O` [ONC0004113, brequinar sodium salt hydrate], the “% viability” value is 82.66%. In the case of `CC(C)C[C@H](NC(=O)OCC1c2ccccc2-c2ccccc21)C(=O)O` [ONC0005461, fmoclleucine], the “% viability” value turned out to be 142.1%. The figure for `COc1ccnc(C[S+]([O-])c2nc3ccc(OC(F)F)cc3[nH]2)c1OC` (centres unmarked) [ONC0001058, pantoprazole sodium] is 66.04%. As for `COc1ccccc1CN[C@H]1CCCN[C@H]1c1ccccc1` [ONC0002633, cp99994], the “% viability” value is 71.16%. As to `O=C(/C=C/c1cccnc1)NCCCCC1CCN(C(=O)c2ccccc2)CC1` [ONC0003480, fk866], the “% viability” value is recorded as 50.58%.

For `NCCc1ccc(O)c(O)c1` [ONC0000660, dopamine hydrochloride], the “% viability” value was found to be 86.19%. On to `CC(ONC(=O)c1cc(C(F)(F)F)cc(C(F)(F)F)c1)C(=O)Nc1ccc(Cl)cc1` (centres unmarked) [ONC0003028, ccg1423], for which the “% viability” value was 136%.

As for `N#CC1(c2ccc(NC(=O)c3cccnc3NCc3ccncc3)cc2)CCCC1` [ONC0005002, apatinib mesylate], the “% viability” value worked out at 98.91%. As for `OC[C@@H](O)CN1CCN(c2ccccc2)CC1` [ONC0004722, levodropropizine], the “% viability” value is 109.8%.

Take `CCCCCC(O)CCCC(=O)O` (centres unmarked) [ONC0003475, 5hydroxydecanoate sodium salt]: the “% viability” value is listed as 72.97%. For the compound `COc1ccc(CCO[C@@H]2CCCC[C@H]2N2CC[C@@H](O)C2)cc1OC` [ONC0001796, vernakalant hydrochloride], the “% viability” value was determined as 98.02%. Turning to `Cc1c(Nc2ncccc2C(=O)O)cccc1C(F)(F)F` [ONC0005632, flunixin meglumine], the “% viability” value is 61.08%. As to `CC[C@H](c1ccc(O)cc1)[C@@H](CC)c1ccc(O)cc1` [ONC0003849, hexestrol], the “% viability” value turned out to be 49.29%.

For `CCCNC(=O)N1N=C(c2ccc(N)cc2)c2cc3c(cc2C1C)OCO3` (centres unmarked) [ONC0001574, sym2206], the “% viability” value turned out to be 95.05%. For the compound `Cc1cccc(Cc2c[nH]cn2)c1C` [ONC0004761, detomidine hcl], the “% viability” value is given as 119.1%. For `Cc1nc2ccc(Oc3ccc(F)cc3)cc2c(=O)n1C[C@H]1CCCN(C(C)C)C1` [ONC0001600, yil781], the “% viability” value amounted to 73.3%. Take `COc1cc(N)c(Cl)cc1C(=O)OCCN1CCCCC1` [ONC0001656, ml10302]: the “% viability” value worked out at 90.28%. With `C1=C2CCCN[C@H]2[C@@H]2C[C@H]1[C@H]1CCCCN1C2` [ONC0004687, aloperine], the “% viability” value is given as 97.24%. For `N#CC(C#N)=Cc1ccc(O)c(O)c1` [ONC0001262, tyrphostinag18], the “% viability” value is recorded as 74.38%. Consider `O=C(O)COc1cccc(CN(Cc2ccc(-n3cccn3)cc2)S(=O)(=O)c2cccnc2)c1` [ONC0000946, taprenepag], for which the “% viability” value was 73.21%. The figure for `CC(=O)OCC(=O)[C@@]1(O)CC[C@H]2[C@@H]3CCC4=CC(=O)C=C[C@]4(C)[C@H]3[C@@H](O)C[C@@]21C` [ONC0000513, prednisolone acetate] is 76.31%; for `O=C1NC(c2cccc([N+](=O)[O-])c2)=CCN1c1ccccc1O` [ONC0003023, icilin] it is 75.59%; for `CN1CCN(C(=O)c2cc3cc(Cl)ccc3[nH]2)CC1` [ONC0004776, jnj7777120] it is 56.23%. Turning to `CCCN(CC1CC1)c1nc(C)nc(Nc2c(Cl)cc(Cl)cc2Cl)c1Cl` [ONC0001865, nbi27914], the “% viability” value is reported as 125.6%. As for `O=C1COc2nccc(-c3ccccc3F)c2CN1Cc1cc(C(F)(F)F)cc(C(F)(F)F)c1` [ONC0000001, gpbara], the “% viability” value amounted to 79.71%. Consider `CNc1cc(OC)c(C(=O)N[C@@H]2CCN(Cc3ccccc3)[C@@H]2C)cc1Cl.CNc1cc(OC)c(C(=O)N[C@H]2CCN(Cc3ccccc3)[C@H]2C)cc1Cl` [ONC0002725, nemonapride], for which the “% viability” value turned out to be 82.55%. For `CCOC(=O)CNC(=O)[C@@H]1CCCN1C(=O)Cc1ccccc1` [ONC0001144, omberacetam] (PhAc-Pro-Gly-OEt), the “% viability” value was 45.25%. With `O=C(Nc1ncc(SCCN2CCCC2)s1)[C@]1(c2ccc(S(=O)(=O)C3CC3)cc2)C[C@H]1C1CCCCC1` [ONC0005072, ly2608204], the “% viability” value worked out at 79.77%. As to `O=C(O)CCCN1CCC(O[C@@H](c2ccc(Cl)cc2)c2ccccn2)CC1` [ONC0004530, bepotastine besilate], the “% viability” value was found to be 67.02%. On to `Clc1ccc(C23CNCC2C3)cc1Cl` (centres unmarked) [ONC0001901, amitifadine], for which the “% viability” value stood at 72.07%.

For the compound `Cc1ccc(S(=O)(=O)OCC(=O)Nc2ccc(C(=O)O)c(O)c2)cc1` [ONC0000797, nsc 74859], the “% viability” value amounted to 82.71%. With `CCC(=O)OCC(=O)[C@@]1(OC(=O)CC)[C@@H](C)C[C@H]2[C@@H]3CCC4=CC(=O)C=C[C@]4(C)[C@@]3(F)[C@@H](O)C[C@@]21C` [ONC0002864, betamethasone 1721dipropionate], the “% viability” value amounted to 121.7%. As for `C/C(=N\c1ccccc1N)c1c(C)cc(=O)n(O)c1O` [ONC0002644, sunb8155], the “% viability” value stood at 62.2%.

Regarding `COc1ccc(Br)cc1S(=O)(=O)NC(=O)/C=C/c1ccccc1Cc1ccc2ccccc2c1` [ONC0000823, l798106], the “% viability” value worked out at 88.75%. As to `CN(C(=O)CCCOc1ccc2[nH]c(=O)ccc2c1)C1CCCCC1` [ONC0001610, cilostamide], the “% viability” value is listed as 82.91%. With `NNC(=O)c1ccncc1` [ONC0002883, pasiniazid], the “% viability” value is on record as 74.66%. As for `NC(C(=O)O)c1ccc(C(=O)O)c(C(=O)O)c1` (centres unmarked) [ONC0001672, 34dcpg], the figure is 91.52%; as for `O=C(NCCO)c1cc(C(=O)NCCO)cc(C(=O)NCCO)c1` [ONC0000127, lm22a4], 90.59%. The figure for `Nc1cc(C(F)(F)F)c(-c2nc(N3CCOCC3)nc(N3CCOCC3)n2)cn1` [ONC0001043, bimiralisib] is 79.27%.

On to `O=C(c1ccc(OCCCc2cnc[nH]2)cc1)C1CC1` [ONC0005077, ciproxifan maleate], for which the “% viability” value stood at 110.6%. For the compound `Nc1nonc1C(=NO)Nc1ccc(F)c(Cl)c1` [ONC0002386, ido5l], the “% viability” value is given as 106.2%. The figure for `COc1cc2c(NC3CCN(CC4CCCCC4)CC3)nc(N3CCCN(C(C)C)CC3)nc2cc1OCCCN1CCCCC1` [ONC0000924, unc 0631] is 76.25%.

In the case of `Cc1[nH]c(/C=C2\C(=O)Nc3cc(-c4ccccc4)ccc32)c(C)c1CCC(=O)O` [ONC0001524, su16f], the “% viability” value was determined as 83.89%. As to `COc1ccc(-c2ccc3cc(C(=O)O)ccc3c2)cc1C12CC3CC(CC(C3)C1)C2` [ONC0000403, adapalene], the “% viability” value worked out at 53.89%.
